From the supplement of paper PMC4635364
Where a name gives a salt, the structure may show the parent alone. The list shows a part of the results. Single values are uncertain here, since repeats match poorly.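 ReNCell VM, a human fetal ventral-midbrain neural progenitor line, was differentiated without mitogens. Blinded raters scored images stained for doublecortin (early neurons) or tyrosine hydroxylase (dopaminergic neurons) against untreated wells (0 = no change). Scores were averaged across repeats and both raters, and compounds averaging 2 or more were selected as hits for retesting.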

Key:
ReNCell VM [1] = experiment: neuronal differentiation score (DCX+ cell fraction vs untreated, manual image score) (score (-3 to 3)); higher = more neuronal differentiation; details: 2 uM, 2 weeks
ReNCell VM [2] = experiment: dopaminergic neuron differentiation score (TH+ cell fraction vs untreated, manual image score) (score (0 to 3)); higher = more TH+ dopaminergic neuron differentiation; details: 2 uM, 4 weeks, BDNF 10 ng/ml + GDNF 10 ng/ml

O=[N+]([O-])c1cccc2cn[nH]c12 [7-Nitroindazole]
inactive: neuronal differentiation score (ReNCell VM [1]; library: LOPAC) 0 | neuronal differentiation score (ReNCell VM [1]; library: Tocriscreen) 0 | dopaminergic neuron differentiation score (ReNCell VM [2]; library: LOPAC) 0 | dopaminergic neuron differentiation score (ReNCell VM [2]; library: Tocriscreen) 0

CN(C)CCOC(c1ccccc1)c1ccccc1 [Diphenhydramine hydrochloride]
inactive: neuronal differentiation score (ReNCell VM [1]; library: LOPAC) 0 | neuronal differentiation score (ReNCell VM [1]; library: Prestwick) 0 | dopaminergic neuron differentiation score (ReNCell VM [2]; library: LOPAC) 0 | dopaminergic neuron differentiation score (ReNCell VM [2]; library: Prestwick) 0

CC(C)(C=O)Cc1cc(C(C)(C)C)c(O)c(C(C)(C)C)c1
inactive: neuronal differentiation score (ReNCell VM [1]; library: LOPAC) 0 | neuronal differentiation score (ReNCell VM [1]; library: Tocriscreen) 0 | dopaminergic neuron differentiation score (ReNCell VM [2]; library: LOPAC) 0 | dopaminergic neuron differentiation score (ReNCell VM [2]; library: Tocriscreen) 0

CC1(C)S[C@@H]2[C@H](NC(=O)[C@H](NC(=O)N3CCNC3=O)c3ccccc3)C(=O)N2[C@H]1C(=O)O
inactive: neuronal differentiation score (ReNCell VM [1]; library: Spectrum) 0 | dopaminergic neuron differentiation score (ReNCell VM [2]; library: Spectrum) 0

CNc1ncnc2c1ncn2[C@@H]1O[C@H](CO)[C@@H](O)[C@H]1O [N6-methyladenosine]
inactive: neuronal differentiation score (ReNCell VM [1]; library: Prestwick) 0 | dopaminergic neuron differentiation score (ReNCell VM [2]; library: Prestwick) 0

O=C(O)C=C1CCCc2ccccc2C1O (centres undefined)
inactive: neuronal differentiation score (ReNCell VM [1]; library: LOPAC) 0 | neuronal differentiation score (ReNCell VM [1]; library: Tocriscreen) 0 | dopaminergic neuron differentiation score (ReNCell VM [2]; library: LOPAC) 0 | dopaminergic neuron differentiation score (ReNCell VM [2]; library: Tocriscreen) 0

Quoted at random: 2 compounds from above, in no set order.
CC1(C)S[C@@H]2[C@H](NC(=O)[C@H](NC(=O)N3CCNC3=O)c3ccccc3)C(=O)N2[C@H]1C(=O)O
inactive: neuronal differentiation score (ReNCell VM [1]; library: Spectrum) 0 | dopaminergic neuron differentiation score (ReNCell VM [2]; library: Spectrum) 0

CN(C)CCOC(c1ccccc1)c1ccccc1 [Diphenhydramine hydrochloride]
inactive: neuronal differentiation score (ReNCell VM [1]; library: LOPAC) 0 | neuronal differentiation score (ReNCell VM [1]; library: Prestwick) 0 | dopaminergic neuron differentiation score (ReNCell VM [2]; library: LOPAC) 0 | dopaminergic neuron differentiation score (ReNCell VM [2]; library: Prestwick) 0

Continuation.

c1cc2c(cc1C1CCCCC1)c1c3n2CCNC3CCC1 (centres undefined) [Tetrindole mesylate]
inactive: neuronal differentiation score (ReNCell VM [1]; library: Tocriscreen) 0 | dopaminergic neuron differentiation score (ReNCell VM [2]; library: Tocriscreen) 0

CCOC(=O)c1cnc2c(cnn2CC)c1NN=C(C)C [Etazolate hydrochloride]
inactive: neuronal differentiation score (ReNCell VM [1]; library: LOPAC) 1 | neuronal differentiation score (ReNCell VM [1]; library: Tocriscreen) 0 | dopaminergic neuron differentiation score (ReNCell VM [2]; library: LOPAC) 0 | dopaminergic neuron differentiation score (ReNCell VM [2]; library: Tocriscreen) 0

Cc1ccc(O)c(N=Nc2ccccc2)n1
inactive: neuronal differentiation score (ReNCell VM [1]; library: LOPAC) 0 | neuronal differentiation score (ReNCell VM [1]; library: Tocriscreen) 0 | dopaminergic neuron differentiation score (ReNCell VM [2]; library: LOPAC) 0 | dopaminergic neuron differentiation score (ReNCell VM [2]; library: Tocriscreen) 0

OCc1cc(C(O)CNCCCCCCOCCCCc2ccccc2)ccc1O (centres undefined) [Salmeterol]
inactive: neuronal differentiation score (ReNCell VM [1]; library: Prestwick) 0 | neuronal differentiation score (ReNCell VM [1]; library: Tocriscreen) 0 | dopaminergic neuron differentiation score (ReNCell VM [2]; library: Prestwick) 1 | dopaminergic neuron differentiation score (ReNCell VM [2]; library: Tocriscreen) 0
